{"source": "paper PMC5996148", "test_in_all_cases": "protein microarray (ProtoArray v5.0), streptavidin-Alexa Fluor 647", "details_in_all_cases": "3'-biotin; 20 mM Tris (pH 7.5), 5 mM MgCl2, 100 mM KCl, 0.1% Tween-20, A/T-rich and random oligonucleotide blockers; temperature not stated; high values mean tight binding", "key": {"[1]": {"system": "CYP4F11 (human)"}, "[2]": {"system": "CYTL1 (human)"}, "[3]": {"system": "Calcium-binding protein 39-like (human)"}, "[4]": {"system": "Calcium/calmodulin-dependent protein kinase type 1 (human)"}, "[5]": {"system": "Calcium/calmodulin-dependent protein kinase type 1B (human)"}, "[6]": {"system": "Calcyclin-binding protein (human)"}, "[7]": {"system": "Calpastatin (human)"}, "[8]": {"system": "Calretinin (human)"}, "[9]": {"system": "Carboxypeptidase A2 (human)"}, "[10]": {"system": "Casein kinase I isoform gamma-2 (human)"}, "[11]": {"system": "Caspase recruitment domain-containing protein 14 (human)"}, "[12]": {"system": "Cathepsin Z (human)"}, "[13]": {"system": "Cbp/p300-interacting transactivator 1 (human)"}, "[14]": {"system": "Cell division cycle 7-related protein kinase (human)"}, "[15]": {"system": "Centromere protein Q (human)"}, "[16]": {"system": "Ciliary neurotrophic factor (human)"}, "[17]": {"system": "Coiled-coil domain-containing protein 115 (human)"}, "[18]": {"system": "Coiled-coil domain-containing protein 28A (human)"}, "[19]": {"system": "Coiled-coil domain-containing protein 6 (human)"}, "[20]": {"system": "Cyclin-Y (human)"}}, "note": "This is one part of the list.", "data": [{"sequence": "GGGGACAGGGGTATGGGGAGGGG [G4-3 biotinylated (CtG)]", "values": [{"measurement": "binding signal", "setting": "[1]", "result": -0.317, "unit": "z-score"}, {"measurement": "binding signal", "setting": "[2]", "result": -0.322, "unit": "z-score"}, {"measurement": "binding signal", "setting": "[3]", "result": -0.34, "unit": "z-score"}, {"measurement": "binding signal", "setting": "[4]", "result": -0.339, "unit": "z-score"}, {"measurement": "binding signal", "setting": "[5]", "result": -0.319, "unit": "z-score"}, {"measurement": "binding signal", "setting": "[6]", "result": 3.68, "unit": "z-score"}, {"measurement": "binding signal", "setting": "[7]", "result": -0.32, "unit": "z-score"}, {"measurement": "binding signal", "setting": "[8]", "result": -0.322, "unit": "z-score"}, {"measurement": "binding signal", "setting": "[9]", "result": -0.312, "unit": "z-score"}, {"measurement": "binding signal", "setting": "[10]", "result": 4.6, "unit": "z-score"}, {"measurement": "binding signal", "setting": "[11]", "result": -0.32, "unit": "z-score"}, {"measurement": "binding signal", "setting": "[12]", "result": -0.315, "unit": "z-score"}, {"measurement": "binding signal", "setting": "[13]", "result": -0.333, "unit": "z-score"}, {"measurement": "binding signal", "setting": "[14]", "result": 3.46, "unit": "z-score"}, {"measurement": "binding signal", "setting": "[15]", "result": -0.35, "unit": "z-score"}, {"measurement": "binding signal", "setting": "[16]", "result": -0.32, "unit": "z-score"}, {"measurement": "binding signal", "setting": "[17]", "result": -0.336, "unit": "z-score"}, {"measurement": "binding signal", "setting": "[18]", "result": 8.15, "unit": "z-score"}, {"measurement": "binding signal", "setting": "[19]", "result": -0.304, "unit": "z-score"}, {"measurement": "binding signal", "setting": "[20]", "result": -0.329, "unit": "z-score"}]}]}
